Measurements reported in patent US20180127505A1, “HUMANIZED ANTI-AXL ANTIBODIES AND THEIR CONJUGATES” (MEDIMMUNE LIMITED, priority 2015, published 2018).
Results are given in words; binding and its absence hold for the method and conditions named. Some results given as binding are weak or reduced against the parent protein; the word gives no strength.

Amino acid sequences for entries named in this document (tags omitted). A change or cut given only in a name is not applied to a line headed by its entry.
UniProt P30530: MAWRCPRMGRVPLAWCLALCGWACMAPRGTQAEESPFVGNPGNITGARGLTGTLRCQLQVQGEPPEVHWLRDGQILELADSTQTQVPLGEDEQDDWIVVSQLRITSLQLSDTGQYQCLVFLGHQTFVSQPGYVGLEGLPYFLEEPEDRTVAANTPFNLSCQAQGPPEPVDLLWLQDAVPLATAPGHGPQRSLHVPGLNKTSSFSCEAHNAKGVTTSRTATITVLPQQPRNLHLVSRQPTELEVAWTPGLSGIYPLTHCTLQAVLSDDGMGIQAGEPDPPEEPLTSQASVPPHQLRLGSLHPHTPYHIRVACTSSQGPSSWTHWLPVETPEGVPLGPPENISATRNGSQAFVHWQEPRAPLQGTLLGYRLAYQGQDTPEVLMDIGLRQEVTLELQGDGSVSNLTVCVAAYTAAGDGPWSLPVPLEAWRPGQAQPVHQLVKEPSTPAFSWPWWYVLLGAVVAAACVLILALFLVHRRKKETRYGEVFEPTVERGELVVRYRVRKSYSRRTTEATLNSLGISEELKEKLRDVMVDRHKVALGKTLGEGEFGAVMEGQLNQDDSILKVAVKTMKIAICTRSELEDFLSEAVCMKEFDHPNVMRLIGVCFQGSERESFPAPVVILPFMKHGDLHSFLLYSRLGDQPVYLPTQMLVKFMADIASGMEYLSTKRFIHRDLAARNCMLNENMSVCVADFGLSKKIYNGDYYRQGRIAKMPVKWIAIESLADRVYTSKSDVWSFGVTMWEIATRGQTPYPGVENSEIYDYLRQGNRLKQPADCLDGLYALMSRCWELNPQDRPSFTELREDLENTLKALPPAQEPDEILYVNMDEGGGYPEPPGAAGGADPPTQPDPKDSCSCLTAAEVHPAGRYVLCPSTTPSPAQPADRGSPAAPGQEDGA

What was measured:
[1] = biological target: Human AXL-Strep-His (produced by Evitria AG in transiently transfected CHO cells) (human) (UniProt P30530); assay: SPR, Axl-Strep-His antigen
[2] = biological target: Human AXL-Strep-His (produced by Evitria AG in transiently transfected CHO cells) (human) (UniProt P30530); assay: human AXL ELISA after 60 hr at 40 C in PBS
[3] = biological target: Human AXL-Strep-His (produced by Evitria AG in transiently transfected CHO cells) (human) (UniProt P30530); assay: ELISA on coated Axl-Strep-His (Protocol 4)
[4] = biological target: Human AXL-Strep-His (produced by Evitria AG in transiently transfected CHO cells) (human) (UniProt P30530); assay: AXL-Strep-His binding ELISA; EC50 not given
[5] = biological target: Human AXL-Strep-His (produced by Evitria AG in transiently transfected CHO cells) (human) (UniProt P30530); assay: ELISA on plate-coated human AXL-Strep-His (Protocol 4), OD 450nm against Log10[IgG (µg/mL)] [A. Human Axl]
[6] = biological target: Human AXL-Strep-His (produced by Evitria AG in transiently transfected CHO cells) (human) (UniProt P30530); assay: human AXL ELISA (Protocol 4), antibody heated in sterile PBS at 40 °C for 60 hr, OD 450nm against Log10[IgG (µg/mL)]
[7] = biological target: Human AXL-Strep-His (produced by Evitria AG in transiently transfected CHO cells) (human) (UniProt P30530); assay: human AXL ELISA (Protocol 4), untreated antibody of the accelerated stability analysis, OD 450nm against Log10[IgG (µg/mL)]

Measured: binding

B1: Ab5, anti-AXL antibody comprising VH SEQ ID NO. 3 and VL SEQ ID NO. 7 and a constant region derived from one or more human antibodies (antibody, V domains shown)
VH: EVQLVESGGGLVQPGGSLRLSCAASGFTFSSYGMSWVRQAPGKGLEWVATISSGGSYTYYPDSVKGRFTISRDNAKNSLYLQMNSLRAEDTAVYYCARHPIYYTYDDTMDYWGQGTLVTVSS
VL: EIVLTQSPGTLSLSPGERATLSCSASSSVSSGNFHWYQQKPGLAPRLLIYRTSNLASGIPARFSGSGSGTDFTLTISSLEPEDFAVYYCQQWSGYPWTFGGGTKLEIK
binds: [1] | [2] | [3] | [4] | [5] | [6] | [7]

B2: Ab1, anti-AXL antibody comprising the murine 1H12 VH (SEQ ID NO. 1) and VL (SEQ ID NO. 4) and a constant region derived from one or more human antibodies (antibody, V domains shown)
VH: EVQLVESGGDLVKPGGSLKLSCAASGFTFSSYGMSWVRQTPDKRLEWVATISSGGSYTYYPDSVKGRFTISRDNAKNTLYLQMSSLKSEDTAMYYCARHPIYYTYDDTMDYWGQGTSVTVSS
VL: ENVLTQSPAIMAASPGEKVTMTCSASSSVSSGNFHWYQQKPGTSPKLWIYRTSNLASGVPARFSGSGSGTSYSLTISSMEAEDAATYYCQQWSGYPWTFGGGTKLEIK
notes: also called Abl; chimeric 1H12
binds: [2] | [3] | [4] | [5] | [6] | [7]
